Data: patent US4060526A, “1-Heterocyclic alkyl-1,2,3,4-tetrahydroquinazolinones and analgesic intermediates thereof” (priority 1976, dated 1977)

System: isolated guinea pig ileum (Acetylcholine)
Experiment: isolated guinea pig ileum screen, block of acetylcholine

CN(C)CCOC(c1ccccc1)c1ccccc1 [Diphenhydramine, reference compound]
Amount to produce a 50% block of Acetylcholine: 6 micrograms
